Test results published in patent publication EP4600262A1, “KERATIN YK93-5, PREPARATION METHOD, AND PHARMACEUTICAL COMPOSITION AND USE THEREOF” (INSTITUTE OF MATERIA MEDICA, CHINESE ACADEMY OF MEDICAL …, priority 2022, dated 2024).
Counter-ions that a name gives are not always drawn.

Tested on: mouse pain model
Assay: mouse pain model (1% acetic acid writhing)
Assay type: in vivo, Male Kunming mice
Settings: writhing reaction vs normal control group; Tramadol Hydrochloride 50mg/kg, YK93-5 2g/kg
Description: • Animals: Male Kunming mice; • Drugs: Tramadol Hydrochloride Sustained Release Tablets, Glacial acetic acid, YK93-5; • Instruments: electronic balance, timer
• Normal control group; • Positive control group: Tramadol Hydrochloride group; • Protein YK93-5, (2g/kg) group.
Mice in the YK93-5 (2g/kg) group were administered by gavage, while mice in the model group were given an equal volume of CMC-Na once a day for 7 consecutive days. 30 minutes after the last administration, 1% acetic acid was administered intraperitoneally, and the writhing times of mice within 15 minutes was recorded, and the inhibition rate of drug-induced writhing reaction was calculated. The observation criteria were concave abdominal cavity, extended hind limbs, and raised buttocks.
The inhibition rate was calculated by (Mean number of writhing reactions in the normal control group - Mean number of writhing reactions in the treatment group)/Mean number of writhing reactions in the normal control group *100%.

Structure (SMILES): COc1cccc(C2(O)CCCCC2CN(C)C)c1 (stereo not shown) [Tramadol Hydrochloride]
- Inhibition rate (%): 93.88%
